Data source: PubChem BioAssay AID1224826 (NIAID, 2016)
Here is an unselected part of about 17,000 reagents tested. About 1,110 of all reagents (6.6%) were called active. 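Active means lowered or raised reporter signal; replicate intensities are raw and not normalised per plate.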 Not all columns of the deposit are shown.

Aim: 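Genes that change LPS-induced Tnf promoter activity in mouse macrophages when knocked down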 (primary screen)
Cells: RAW264.7 G9 macrophages from mouse bearing reporters for p65 (GFP) and the Tnf promoter (mCherry)
Reagent: siRNA pool against mouse genes, 100 nM
Time to read-out: 16 h of LPS stimulation, after 2 days of siRNA transfection
Challenge: bacterial lipopolysaccharide (Salmonella minnesota R595), 10 ng/ml
Read-out: 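Imaged Tnf reporter mCherry in nuclei, minus background, normalised per plate to the median and expressed as robust z-scores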
Direction: Tnf reporter robust z-score: higher = stronger Tnf promoter reporter signal after LPS
Rule for the call: 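Called active when robust z-score is at most -1.3, matching the median of the Tlr4 knock-down control, or over 3; control wells and wells with under 50 cells never active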
Meaning of the calls: active = Tnf reporter clearly lowered or raised; inactive = no clear change in Tnf reporter

St3gal5 (ST3 beta-galactoside alpha-2,3-sialyltransferase 5) — Tnf reporter robust z-score: 0.66; fewer than 50 cells in well: enough cells in well; outcome: inactive
Plekho2 (pleckstrin homology domain containing O2) — Tnf reporter robust z-score: -1.31; fewer than 50 cells in well: enough cells in well; outcome: active
Sox2ot (SOX2 overlapping transcript (non-protein coding)) — Tnf reporter robust z-score: -1.43; fewer than 50 cells in well: enough cells in well; outcome: active
Carns1 (carnosine synthase 1) — Tnf reporter robust z-score: 1.18; fewer than 50 cells in well: enough cells in well; outcome: inactive
Oga (O-GlcNAcase) — Tnf reporter robust z-score: 0.29; fewer than 50 cells in well: enough cells in well; outcome: inactive

The list goes on, starting with the last 2 of the part before.
Carns1 (carnosine synthase 1) — Tnf reporter robust z-score: 1.18; fewer than 50 cells in well: enough cells in well; outcome: inactive
Oga (O-GlcNAcase) — Tnf reporter robust z-score: 0.29; fewer than 50 cells in well: enough cells in well; outcome: inactive
Ube2h (ubiquitin-conjugating enzyme E2H) — Tnf reporter robust z-score: -0.77; fewer than 50 cells in well: enough cells in well; outcome: inactive
Txndc15 (thioredoxin domain containing 15) — Tnf reporter robust z-score: -1.12; fewer than 50 cells in well: enough cells in well; outcome: inactive
Sncaip (synuclein, alpha interacting protein (synphilin)) — Tnf reporter robust z-score: 5.51; fewer than 50 cells in well: enough cells in well; outcome: active
Dmrt3 (doublesex and mab-3 related transcription factor 3) — Tnf reporter robust z-score: -0.79; fewer than 50 cells in well: enough cells in well; outcome: inactive
Tcaf3 (TRPM8 channel-associated factor 3) — Tnf reporter robust z-score: 0.57; fewer than 50 cells in well: enough cells in well; outcome: inactive
Mcm4 (minichromosome maintenance complex component 4) — Tnf reporter robust z-score: -0.47; fewer than 50 cells in well: enough cells in well; outcome: inactive
Sdhc — Tnf reporter robust z-score: -0.27; fewer than 50 cells in well: enough cells in well; outcome: inactive
